# US20230146507A1, “N-PHENYL-3-MERCAPTOPROPANAMIDE DERIVATIVES AS METALLO-BETA-LACTAMASE INHIBITORS FOR THE TREATMENT OF BACTERIAL INFECTIONS” (Helmholtz-Zentrum Für Infektionsforschung GmbH, priority 2020, published 2023)
# Some entries share one result that the patent states for a list of compounds.
# System: zebrafish embryos of the AB wild-type line
# Assay: Zebrafish toxicity
# Format: in vivo
# Conditions: zebrafish larvae, up to 120 hpf, 30-150 μM tested
row,Structure (SMILES),maximum tolerated concentration (MTC)
1,O=C(CCS)Nc1ccccc1C(=O)O [HIPS1686],≥ 150 µM
2,NC(=O)NS(=O)(=O)c1ccc(NC(=O)CCS)cc1 [HIPS5682],≥ 150 µM
3,N=C(N)NS(=O)(=O)c1ccc(NC(=O)CCS)cc1 [HIPS5683],≥ 150 µM
